Measured values as given in paper doi:10.1101/2021.10.21.465262.

Chains of the proteins cited; added tags and fusions are not shown. Residues count along the entry.
UniProt Q9Z1P6: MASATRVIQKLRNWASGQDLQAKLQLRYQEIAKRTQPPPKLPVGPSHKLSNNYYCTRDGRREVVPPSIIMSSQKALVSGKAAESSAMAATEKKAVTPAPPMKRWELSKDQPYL
UniProt Q8K199: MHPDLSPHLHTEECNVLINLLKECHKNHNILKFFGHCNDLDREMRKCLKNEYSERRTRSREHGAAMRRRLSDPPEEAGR
UniProt P03921: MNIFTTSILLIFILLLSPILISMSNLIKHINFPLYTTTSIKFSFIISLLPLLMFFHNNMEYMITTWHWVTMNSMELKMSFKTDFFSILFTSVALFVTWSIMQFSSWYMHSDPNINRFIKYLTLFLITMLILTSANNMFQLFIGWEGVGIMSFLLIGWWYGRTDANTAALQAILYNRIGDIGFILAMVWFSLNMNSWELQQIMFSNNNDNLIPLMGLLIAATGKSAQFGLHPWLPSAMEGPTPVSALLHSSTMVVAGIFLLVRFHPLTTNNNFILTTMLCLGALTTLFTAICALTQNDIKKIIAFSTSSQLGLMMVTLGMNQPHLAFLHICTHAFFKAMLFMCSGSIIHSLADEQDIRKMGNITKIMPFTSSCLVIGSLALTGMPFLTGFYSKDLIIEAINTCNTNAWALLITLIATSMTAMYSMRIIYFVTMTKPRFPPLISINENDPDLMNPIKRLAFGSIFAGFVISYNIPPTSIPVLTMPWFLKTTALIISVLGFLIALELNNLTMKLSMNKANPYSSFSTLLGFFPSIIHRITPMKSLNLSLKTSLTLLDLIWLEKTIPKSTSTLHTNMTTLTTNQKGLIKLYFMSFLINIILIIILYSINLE
UniProt P56391: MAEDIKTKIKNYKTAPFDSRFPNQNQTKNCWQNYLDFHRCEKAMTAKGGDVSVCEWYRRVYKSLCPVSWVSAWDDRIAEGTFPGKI
UniProt P52503, residues 21-116: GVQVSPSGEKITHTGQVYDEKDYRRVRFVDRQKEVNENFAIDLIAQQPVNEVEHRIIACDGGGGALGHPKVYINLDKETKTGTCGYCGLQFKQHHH
UniProt P56392, residues 22-80: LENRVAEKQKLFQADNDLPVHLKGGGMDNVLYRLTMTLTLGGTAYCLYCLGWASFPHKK

T1: FLAG-MTFP1 (Mitochondrial fission process 1) (UniProt Q9CRB8)
T1 sequence: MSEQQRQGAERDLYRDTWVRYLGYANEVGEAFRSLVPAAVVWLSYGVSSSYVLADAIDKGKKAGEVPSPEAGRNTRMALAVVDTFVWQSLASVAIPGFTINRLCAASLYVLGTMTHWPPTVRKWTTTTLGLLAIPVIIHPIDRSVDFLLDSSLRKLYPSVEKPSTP

B1: heat shock protein TRAP1 (protein, UniProt Q9CQN1 61-706)
chain: STQAAEDKEEESLHSIISNTEAVRGSVSKHEFQAETKKLLDIVARSLYSEKEVFIRELISNASDALEKLRHKLVCEGQVLPEMEIHLQTDAKKGTITIQDTGIGMTQEELVSNLGTIARSGSKAFLEALQNQAETSSKIIGQFGVGFYSAFMVADKVEVYSRSAAPESPGYQWLSDGSGVFEIAEASGVRPGTKIIIHLKSDCKDFASESRVQDVVTKYSNFVSFPLYLNGKRINTLQAIWMMDPKDISEFQHEEFYRYIAQAYDKPRFTLHYKTDAPLNIRSIFYVPEMKPSMFDVSRELGSSVALYSRKVLIQTKAADILPKWLRFIRGVVDSEDIPLNLSRELLQESALIRKLRDVLQQRLIKFFIDQSKKDAEKYAKFFEDYGLFMREGIVTTAEQDIKEDIAKLLRYESSALPAGQLTSLPDYASRMQAGTRNIYYLCAPNRHLAEHSPYYEAMKQKHTEVLFCYEQFDELTLLHLREFDKKKLISVETDIVVDHYKEEKFEDTSPADERLSEKETEDLMAWMRNALGSRVTNVKVTFRLDTHPAMVTVLEMGAARHFLRMQQLAKTQEERAQLLQPTLEINPRHTLIKKLCQLRESEPELAQLLVDQIYENAMIAAGLVDDPRAMVGRLNDLLVKVLEKH
B2: inorganic phosphate carrier SLC25A3 (protein, UniProt Q8VEM8 46-357)
chain: AVEEYSCEFGSMKYYALCGFGGVLSCGLTHTAVVPLDLVKCRMQVDPQKYKGIFNGFSITLKEDGVRGLAKGWAPTLIGYSMQGLCKFGFYEVFKALYSNILGEENTYLWRTSLYLASSASAEFFADIALAPMEAAKVRIQTQPGYANTLREAVPKMYKEEGLNAFYKGVAPLWMRQIPYTMMKFACFERTVEALYKFVVPKPRSECTKAEQLVVTFVAGYIAGVFCAIVSHPADSVVSVLNKEKGSTASQVLQRLGFRGVWKGLFARIIMIGTLTALQWFIYDSVKVYFRLPRPPPPEMPESLKKKLGLTE
B3: Ndufa10 (protein, UniProt Q99LC3 36-355)
chain: LRYGLLAAILGDKTTKKLHEYSRVITVDGNICSGKNKLAKEIAQQLGMKHYPEAGIQYSSTTTGDGRPLDIEFSGSCSLEKFYDDPKSNDGNSYRLQSWLYASRLLQYADALEHLLSTGQGVVLERSIYSDFVFLEAMYNQGYIRKQCVDHYNEIKRLTLPEYLPPHAVIYIDVPVPEVQSRIQKKGDPHEMKVTSAYLQDIENAYKKTFLPKMSEMCEVLVYDSWEAEDPTKVVEDIEYLKYNKGPWLKQDDWTFHYLRMLVQDKTEVLNYTTIPVYLPEITIGAHQGSRIYNSFRELPGRKYAPGYNAEVGDKWIWLK
B4: ATP5L (protein, UniProt Q9CPQ8 1-103)
chain: MAKFIRNFAEKAPSMVAAAVTYSKPRLATFWHYAKVELVPPTPAEIPTAIQSVKKIIQSAKTGSFKHLTVKEAVLNGLVATEVWMWFYIGEIIGKRGIVGYDV
B5: SCO2 (protein, UniProt Q8VCL2 42-255)
chain: QGPGLRTRLLITALFGAGLGWAWLAARAEKEQWRQQQRTEALRQAAVGQGDFSLLDHKGQPRCKADFRGQWVLMYFGFTHCPDICPDELEKLVQVVRKLEAEPDLPLVQPVFITVDPERDDVAAMARYVQEFHPRLLGLTGSTEQVAHASRNYRVYYSAGPKDEDQDYIVDHSIAIYLLNPDGLFTDYYGRSRSAEQIVESIRRHIAAFHSVLP
B6: ADP/ATP translocase SLC25A4 (protein, UniProt P48962 1-298)
chain: MGDQALSFLKDFLAGGIAAAVSKTAVAPIERVKLLLQVQHASKQISAEKQYKGIIDCVVRIPKEQGFLSFWRGNLANVIRYFPTQALNFAFKDKYKQIFLGGVDRHKQFWRYFAGNLASGGAAGATSLCFVYPLDFARTRLAADVGKGSSQREFNGLGDCLTKIFKSDGLKGLYQGFSVSVQGIIIYRAAYFGVYDTAKGMLPDPKNVHIIVSWMIAQSVTAVAGLVSYPFDTVRRRMMMQSGRKGADIMYTGTLDCWRKIAKDEGANAFFKGAWSNVLRGMGGAFVLVLYDEIKKYV
B7: USMG5 (protein, UniProt Q78IK2 1-58)
chain: MAGAESDGQFQFTGIKKYFNSYTLTGRMNCVLATYGGIALLVLYFKLRPKKTPAVKAT
B8: NDUFB4 (protein, UniProt Q9CQC7 1-129)
chain: MSGSKYKPAPLATLPSTLDPAEYDVSPETRRAQVERLSIRARLKREYLLQYNDPKRVSHIEDPALIRWTYARSANIYPNFRPTPKNSLLGAVAGFGPLIFWYYVFKTDRDRKERLIQEGKLDRKFNISY

Target: T1, FLAG-MTFP1 (Mitochondrial fission process 1)
Experiment: affinity purification with mass spectrometry

binding, binds:
NDUFA7 (from UniProt Q9Z1P6 1-113)
CMC2 (from UniProt Q8K199 1-79)
Mtnd5 (from UniProt P03921 1-607)
COX6B1 (from UniProt P56391 1-86)
NDUFS6 (from UniProt P52503 21-116)
COX7A1 (from UniProt P56392 22-80)
B1
B2
B3
B4
B5
B6
B7
B8

These are yes or no findings as the source states them, for the method shown. In cells and extracts the contact can be indirect. These calls come from enrichment with a bait or labelling near it, and not all partners need be listed. Where a sequence is shown, tags or fusion partners need not be part of it.
